# The supplement of paper PMC12823440, “Inhibitors supercharge kinase turnover through native proteolytic circuits” (Nature, 2025)
# Sequences of proteins named here, by UniProt entry; tags and fusion partners are left off. A change or cut given only in a name is not applied to a line headed by its entry.
# UniProt P48729: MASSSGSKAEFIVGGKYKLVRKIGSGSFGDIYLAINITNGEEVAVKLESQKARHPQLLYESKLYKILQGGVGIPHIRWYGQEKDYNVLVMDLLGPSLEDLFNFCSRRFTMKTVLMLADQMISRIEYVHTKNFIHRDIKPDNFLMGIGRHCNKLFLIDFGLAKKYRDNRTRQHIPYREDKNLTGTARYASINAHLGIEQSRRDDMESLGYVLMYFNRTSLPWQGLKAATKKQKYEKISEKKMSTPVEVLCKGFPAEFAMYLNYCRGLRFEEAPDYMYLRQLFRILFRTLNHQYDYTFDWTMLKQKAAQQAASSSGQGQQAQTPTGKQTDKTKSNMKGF
# UniProt P48730: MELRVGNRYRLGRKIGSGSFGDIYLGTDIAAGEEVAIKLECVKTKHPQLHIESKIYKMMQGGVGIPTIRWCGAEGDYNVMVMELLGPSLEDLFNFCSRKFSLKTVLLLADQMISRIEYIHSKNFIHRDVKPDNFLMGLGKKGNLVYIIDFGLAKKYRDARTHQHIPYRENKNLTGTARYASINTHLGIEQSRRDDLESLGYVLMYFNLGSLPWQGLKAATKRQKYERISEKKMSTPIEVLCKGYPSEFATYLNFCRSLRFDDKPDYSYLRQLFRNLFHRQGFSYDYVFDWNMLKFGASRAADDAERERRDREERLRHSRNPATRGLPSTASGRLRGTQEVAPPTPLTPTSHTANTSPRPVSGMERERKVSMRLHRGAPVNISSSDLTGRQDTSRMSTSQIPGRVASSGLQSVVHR
# UniProt Q9Y463, whole entry, looked up: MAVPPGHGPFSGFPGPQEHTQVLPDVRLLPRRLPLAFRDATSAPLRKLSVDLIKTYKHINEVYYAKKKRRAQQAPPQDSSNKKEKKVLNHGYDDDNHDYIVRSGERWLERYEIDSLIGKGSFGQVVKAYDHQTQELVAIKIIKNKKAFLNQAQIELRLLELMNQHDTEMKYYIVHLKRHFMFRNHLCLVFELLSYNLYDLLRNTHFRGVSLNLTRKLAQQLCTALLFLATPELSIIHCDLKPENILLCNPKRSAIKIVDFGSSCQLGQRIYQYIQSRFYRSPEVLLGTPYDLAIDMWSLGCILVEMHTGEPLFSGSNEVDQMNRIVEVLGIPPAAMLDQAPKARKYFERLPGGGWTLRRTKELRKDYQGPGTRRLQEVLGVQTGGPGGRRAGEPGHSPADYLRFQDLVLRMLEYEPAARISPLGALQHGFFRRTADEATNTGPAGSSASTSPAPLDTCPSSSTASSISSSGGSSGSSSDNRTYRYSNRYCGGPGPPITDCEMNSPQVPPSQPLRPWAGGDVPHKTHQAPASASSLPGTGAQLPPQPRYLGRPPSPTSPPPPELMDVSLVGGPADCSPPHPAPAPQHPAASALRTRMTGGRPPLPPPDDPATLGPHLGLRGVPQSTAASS
# UniProt Q92630: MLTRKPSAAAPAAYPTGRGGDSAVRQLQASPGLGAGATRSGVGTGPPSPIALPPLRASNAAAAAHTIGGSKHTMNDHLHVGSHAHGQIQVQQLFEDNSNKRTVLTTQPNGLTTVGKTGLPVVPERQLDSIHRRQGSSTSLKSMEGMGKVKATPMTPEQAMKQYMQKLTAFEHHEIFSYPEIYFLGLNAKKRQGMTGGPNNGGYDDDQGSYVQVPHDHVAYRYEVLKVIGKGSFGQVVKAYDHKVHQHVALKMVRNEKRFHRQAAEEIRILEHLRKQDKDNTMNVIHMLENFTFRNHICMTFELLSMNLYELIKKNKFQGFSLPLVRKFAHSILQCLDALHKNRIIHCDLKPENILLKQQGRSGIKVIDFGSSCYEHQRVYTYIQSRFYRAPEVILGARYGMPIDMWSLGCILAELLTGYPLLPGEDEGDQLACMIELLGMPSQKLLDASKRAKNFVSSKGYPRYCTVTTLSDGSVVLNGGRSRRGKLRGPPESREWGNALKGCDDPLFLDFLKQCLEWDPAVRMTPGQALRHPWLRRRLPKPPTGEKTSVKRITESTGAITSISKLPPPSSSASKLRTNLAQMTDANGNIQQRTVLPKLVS
# UniProt P29317, whole entry: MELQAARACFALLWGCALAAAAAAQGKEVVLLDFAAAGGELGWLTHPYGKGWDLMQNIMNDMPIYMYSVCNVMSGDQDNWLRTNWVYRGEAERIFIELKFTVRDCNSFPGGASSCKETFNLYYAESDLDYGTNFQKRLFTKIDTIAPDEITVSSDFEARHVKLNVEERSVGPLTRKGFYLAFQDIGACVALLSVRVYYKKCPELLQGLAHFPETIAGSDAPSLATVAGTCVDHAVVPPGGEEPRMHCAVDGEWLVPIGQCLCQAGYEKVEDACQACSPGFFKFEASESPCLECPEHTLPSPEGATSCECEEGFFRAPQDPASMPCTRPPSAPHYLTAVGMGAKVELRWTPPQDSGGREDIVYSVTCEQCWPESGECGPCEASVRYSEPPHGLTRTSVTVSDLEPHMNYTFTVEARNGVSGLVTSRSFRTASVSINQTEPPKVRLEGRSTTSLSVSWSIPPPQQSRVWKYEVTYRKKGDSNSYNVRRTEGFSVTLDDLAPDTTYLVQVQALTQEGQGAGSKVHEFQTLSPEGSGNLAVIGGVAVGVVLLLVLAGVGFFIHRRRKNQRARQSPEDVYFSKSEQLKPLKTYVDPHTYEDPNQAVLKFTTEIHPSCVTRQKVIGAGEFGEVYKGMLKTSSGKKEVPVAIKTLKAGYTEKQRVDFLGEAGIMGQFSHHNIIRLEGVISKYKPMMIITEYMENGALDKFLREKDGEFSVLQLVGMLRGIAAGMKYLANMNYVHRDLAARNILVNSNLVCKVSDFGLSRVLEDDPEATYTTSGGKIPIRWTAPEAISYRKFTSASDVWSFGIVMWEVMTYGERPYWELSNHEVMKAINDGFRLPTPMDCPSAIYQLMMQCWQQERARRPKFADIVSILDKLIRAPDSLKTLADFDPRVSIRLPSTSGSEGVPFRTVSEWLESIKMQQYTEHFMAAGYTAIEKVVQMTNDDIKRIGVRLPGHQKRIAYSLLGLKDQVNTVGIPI
# UniProt O75460: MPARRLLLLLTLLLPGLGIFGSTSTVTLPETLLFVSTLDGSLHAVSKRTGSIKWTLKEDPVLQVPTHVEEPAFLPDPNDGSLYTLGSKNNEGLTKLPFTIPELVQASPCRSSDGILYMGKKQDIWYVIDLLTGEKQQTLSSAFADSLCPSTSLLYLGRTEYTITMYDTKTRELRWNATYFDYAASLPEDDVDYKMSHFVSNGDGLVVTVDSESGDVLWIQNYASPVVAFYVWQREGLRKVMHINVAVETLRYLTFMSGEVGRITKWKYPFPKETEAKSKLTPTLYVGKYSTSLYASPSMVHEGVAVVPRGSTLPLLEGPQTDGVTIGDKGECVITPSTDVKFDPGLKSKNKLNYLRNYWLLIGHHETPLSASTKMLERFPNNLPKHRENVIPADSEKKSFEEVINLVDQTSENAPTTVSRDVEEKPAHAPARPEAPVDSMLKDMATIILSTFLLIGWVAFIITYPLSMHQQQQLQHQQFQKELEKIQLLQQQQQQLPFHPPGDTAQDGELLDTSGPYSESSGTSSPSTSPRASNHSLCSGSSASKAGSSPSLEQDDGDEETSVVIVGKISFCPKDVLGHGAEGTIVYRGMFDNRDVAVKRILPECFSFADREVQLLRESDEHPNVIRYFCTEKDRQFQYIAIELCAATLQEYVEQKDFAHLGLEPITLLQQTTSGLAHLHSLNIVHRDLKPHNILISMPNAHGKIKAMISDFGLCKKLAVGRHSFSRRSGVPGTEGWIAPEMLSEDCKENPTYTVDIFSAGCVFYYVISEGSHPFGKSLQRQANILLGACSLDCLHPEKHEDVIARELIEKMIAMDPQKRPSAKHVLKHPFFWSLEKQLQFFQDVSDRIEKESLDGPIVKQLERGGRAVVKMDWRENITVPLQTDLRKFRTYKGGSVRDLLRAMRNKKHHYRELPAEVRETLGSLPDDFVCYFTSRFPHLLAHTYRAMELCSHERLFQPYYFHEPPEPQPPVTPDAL
# UniProt P11362, whole entry, looked up: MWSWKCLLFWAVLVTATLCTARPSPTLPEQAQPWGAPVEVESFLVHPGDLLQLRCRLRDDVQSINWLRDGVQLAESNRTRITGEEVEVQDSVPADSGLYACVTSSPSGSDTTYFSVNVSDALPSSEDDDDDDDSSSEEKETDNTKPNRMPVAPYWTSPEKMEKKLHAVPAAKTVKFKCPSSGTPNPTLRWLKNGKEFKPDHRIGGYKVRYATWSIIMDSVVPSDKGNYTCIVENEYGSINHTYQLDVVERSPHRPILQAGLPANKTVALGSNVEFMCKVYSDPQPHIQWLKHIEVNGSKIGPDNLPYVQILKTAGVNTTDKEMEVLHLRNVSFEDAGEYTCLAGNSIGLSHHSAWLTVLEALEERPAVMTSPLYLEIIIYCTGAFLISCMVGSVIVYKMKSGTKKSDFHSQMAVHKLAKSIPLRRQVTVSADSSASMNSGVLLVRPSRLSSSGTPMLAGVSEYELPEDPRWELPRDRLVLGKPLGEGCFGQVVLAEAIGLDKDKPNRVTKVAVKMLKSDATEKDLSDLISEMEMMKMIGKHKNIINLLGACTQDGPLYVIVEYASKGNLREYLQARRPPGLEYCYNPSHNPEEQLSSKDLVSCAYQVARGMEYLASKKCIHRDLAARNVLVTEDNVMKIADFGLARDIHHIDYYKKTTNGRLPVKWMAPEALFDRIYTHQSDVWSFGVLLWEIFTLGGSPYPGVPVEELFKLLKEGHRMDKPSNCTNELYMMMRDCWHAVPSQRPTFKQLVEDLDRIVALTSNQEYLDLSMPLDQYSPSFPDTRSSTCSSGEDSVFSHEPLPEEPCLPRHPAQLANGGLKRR
# UniProt P21802, whole entry, looked up: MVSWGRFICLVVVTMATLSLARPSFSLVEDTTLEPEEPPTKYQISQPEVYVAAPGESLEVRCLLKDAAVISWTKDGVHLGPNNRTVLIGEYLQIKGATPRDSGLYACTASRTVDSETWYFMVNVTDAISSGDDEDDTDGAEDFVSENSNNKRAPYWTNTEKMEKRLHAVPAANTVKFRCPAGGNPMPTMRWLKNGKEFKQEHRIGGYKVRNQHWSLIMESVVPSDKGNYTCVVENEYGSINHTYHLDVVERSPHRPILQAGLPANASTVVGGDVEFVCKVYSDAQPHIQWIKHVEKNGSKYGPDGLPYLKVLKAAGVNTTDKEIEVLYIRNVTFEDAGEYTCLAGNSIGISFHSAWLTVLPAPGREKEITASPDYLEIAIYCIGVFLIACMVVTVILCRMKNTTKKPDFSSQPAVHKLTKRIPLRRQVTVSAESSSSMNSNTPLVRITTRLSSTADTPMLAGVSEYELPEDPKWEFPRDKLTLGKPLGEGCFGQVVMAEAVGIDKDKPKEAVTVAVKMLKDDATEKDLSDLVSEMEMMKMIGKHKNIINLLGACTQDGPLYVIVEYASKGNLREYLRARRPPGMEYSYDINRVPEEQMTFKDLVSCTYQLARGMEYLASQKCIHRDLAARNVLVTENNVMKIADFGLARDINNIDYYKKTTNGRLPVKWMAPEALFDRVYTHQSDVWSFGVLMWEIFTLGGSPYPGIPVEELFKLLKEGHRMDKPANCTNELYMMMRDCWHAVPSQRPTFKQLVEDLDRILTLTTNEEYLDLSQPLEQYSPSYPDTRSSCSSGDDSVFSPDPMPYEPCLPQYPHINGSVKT
# UniProt P22607, whole entry, looked up: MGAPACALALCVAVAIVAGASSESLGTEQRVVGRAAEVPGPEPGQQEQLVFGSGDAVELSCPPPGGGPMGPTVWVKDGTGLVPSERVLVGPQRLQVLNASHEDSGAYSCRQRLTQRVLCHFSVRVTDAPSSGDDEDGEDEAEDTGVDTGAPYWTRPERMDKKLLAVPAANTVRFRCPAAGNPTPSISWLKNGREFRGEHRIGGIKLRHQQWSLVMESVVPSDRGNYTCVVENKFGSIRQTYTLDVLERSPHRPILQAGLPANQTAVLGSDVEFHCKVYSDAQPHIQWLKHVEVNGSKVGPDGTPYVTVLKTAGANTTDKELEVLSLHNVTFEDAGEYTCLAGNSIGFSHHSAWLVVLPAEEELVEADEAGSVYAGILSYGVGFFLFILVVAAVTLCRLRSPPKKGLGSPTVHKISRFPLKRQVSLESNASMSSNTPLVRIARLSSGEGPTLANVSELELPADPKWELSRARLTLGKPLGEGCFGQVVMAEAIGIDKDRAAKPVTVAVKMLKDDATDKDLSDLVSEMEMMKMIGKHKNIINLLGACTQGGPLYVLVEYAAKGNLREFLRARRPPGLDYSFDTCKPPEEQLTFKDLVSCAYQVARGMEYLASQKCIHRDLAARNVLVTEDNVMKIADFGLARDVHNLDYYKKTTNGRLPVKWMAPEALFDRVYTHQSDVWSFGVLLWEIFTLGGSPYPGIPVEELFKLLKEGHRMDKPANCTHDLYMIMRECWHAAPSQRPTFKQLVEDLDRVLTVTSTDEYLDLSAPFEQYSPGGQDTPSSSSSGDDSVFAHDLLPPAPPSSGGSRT
# Where a name gives a salt, the structure may show the parent alone. Some of the results follow. Hit calls seldom repeat between salt and free forms of one compound.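 Kinases were expressed as nanoluciferase fusions in K562 cells and luminescence was read every 4 h between 2 and 18 h as percent of control, DMSO set to 100% and a positive control to 0%. A time point counts as decreased when the signal drops significantly (2 sigma). The hit call is the authors' own, does not follow from the count of time points alone, and its rule is not shown.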
# What was measured:
# Test in all cases: number of time points (of 5) at which kinase-Nluc abundance scored as decreased, DMSO-normalised (count); higher = more persistent destabilization
# Details in all cases: K562; 2-18 h
# CSNK1A1 = CSNK1A1 (UniProt P48729)
# CSNK1D = CSNK1D (UniProt P48730)
# DDR1 = DDR1 (UniProt Q08345)
# DYRK1B = DYRK1B (UniProt Q9Y463)
# DYRK2 = DYRK2 (UniProt Q92630)
# EGFR = EGFR (UniProt P00533)
# EGFR_G719S = EGFR_G719S (UniProt P00533)
# EGFR_G719S_T790M = EGFR_G719S_T790M (UniProt P00533)
# EGFR_L718V = EGFR_L718V (UniProt P00533)
# EGFR_L858R = EGFR_L858R (UniProt P00533)
# EGFR_L861Q = EGFR_L861Q (UniProt P00533)
# EGFR_T790M = EGFR_T790M (UniProt P00533)
# EPHA2 = EPHA2 (UniProt P29317)
# ERBB3 = ERBB3 (UniProt P21860)
# [1] = biological target: ERBB4_R711C (clone: ERBB4_mut) (UniProt Q15303)
# ERN1 = ERN1 (UniProt O75460)
# FGFR1 = FGFR1 (UniProt P11362)
# FGFR2 = FGFR2 (UniProt P21802)
# FGFR3 = FGFR3 (UniProt P22607)
# FGR = FGR (UniProt P09769)
SMILES,number of time points (CSNK1A1),number of time points (CSNK1D),number of time points (DDR1),number of time points (DYRK1B),number of time points (DYRK2),number of time points (EGFR),number of time points (EGFR_G719S),number of time points (EGFR_G719S_T790M),number of time points (EGFR_L718V),number of time points (EGFR_L858R),number of time points (EGFR_L861Q),number of time points (EGFR_T790M),number of time points (EPHA2),number of time points (ERBB3),number of time points [1],number of time points (ERN1),number of time points (FGFR1),number of time points (FGFR2),number of time points (FGFR3),number of time points (FGR)
Cc1ccc(-n2c(-c3ccc(O)cc3O)n[nH]c2=O)cc1 (10 µM),0,0,4,0,0,3,4,4,3,4,4,2,0,4,3,1,0,3,0,0
COc1ccc(-c2cnc3c(-c4cccc5ncccc45)cnn3c2)cc1 (10 µM),0,0,0,0,0,0,0,0,0,0,0,0,0,0,0,0,0,0,0,0
Cc1cc(Nc2ncc(Cl)c(Nc3ccccc3S(=O)(=O)C(C)C)n2)c(OC(C)C)cc1C1CCN(CC(=O)NCCNc2cccc3c2C(=O)N(C2CCC(=O)NC2=O)C3=O)CC1 (stereo not given) (10 µM),0,0,0,0,0,0,0,0,0,0,0,0,0,0,0,0,0,0,0,0
COc1ccc(S(=O)(=O)N(CCO)c2ccccc2CN(C)CC=Cc2ccc(Cl)cc2)cc1 (2.5 µM),0,0,0,0,0,0,0,0,0,0,0,0,0,0,0,0,0,0,0,0
C[C@H]1CNC(=O)c2cnn3ccc(nc23)N[C@H](C)c2cc(F)ccc2O1 [Repotrectinib] (2.5 µM),0,1,1,0,3,1,1,1,0,0,1,0,0,2,1,0,0,2,0,0
Cc1cccc(Cn2nc(C)c3c(NC(=O)c4csc5c(N)ncnc45)cccc32)n1 (10 µM),0,0,0,0,0,0,0,0,0,0,0,0,0,0,0,0,0,0,0,0
O=C(Nc1cc(Cl)cc(Cl)c1)Nc1cc(Cl)cc(Cl)c1 (10 µM),0,0,0,0,3,0,0,0,0,0,0,0,0,0,0,0,0,0,0,0
O=C(Nc1ncc(SCCN2CCCC2)s1)[C@]1(c2ccc(S(=O)(=O)C3CC3)cc2)C[C@H]1C1CCCCC1 [Globalagliatin] (2.5 µM),0,0,0,0,0,0,0,0,0,0,0,0,0,0,0,0,0,0,0,0
CC(C)(C)S(=O)(=O)c1cc2c(Nc3ccc4scnc4c3)ccnc2cc1OCCOCCOCCOCCOCC(=O)Nc1cccc2c1CN(C1CCC(=O)NC1=O)C2=O (stereo not given) [PROTAC RIPK degrader-6] (10 µM),0,0,0,0,0,0,0,0,0,0,0,0,0,0,0,0,0,0,0,0
O=C(CCc1ccc2n1[B-](F)(F)[N+]1=C(c3ccc[nH]3)C=CC1=C2)ON1C(=O)CCC1=O [Py-BODIPY-NHS ester] (2.5 µM),0,0,0,0,0,0,0,0,0,0,0,0,0,0,0,0,0,0,0,0
C[C@H](CC[C@@H](O)C(C)(C)O)[C@H]1CC[C@@]2(C)[C@@H]3CC=C4[C@@H](CC[C@H](O)C4(C)C)[C@]3(C)[C@H](O)C[C@]12C [Mogrol] (10 µM),0,0,0,0,0,0,0,0,0,0,0,0,0,0,0,0,0,0,0,0
O=S(=O)(c1cccc2c(Cl)cccc12)N1CCCNCC1 (10 µM),0,0,0,0,0,0,0,0,0,0,0,0,0,0,0,0,0,0,0,0
CC(C)(O)c1cc(Nc2cc(Oc3cn(C4CC4)nc3C3CCOCC3)ccn2)ccn1 (10 µM),0,0,0,0,0,0,0,0,0,0,0,0,0,0,0,0,0,0,0,0
Cn1cc(-c2ccc3ncc(Cc4ccc5ncccc5c4)n3n2)cn1 (10 µM),0,0,0,0,0,0,0,0,0,0,0,0,0,0,0,0,0,0,0,0
COc1cc(/C=C/c2ccc(NC(=O)/C=C/c3cc(OC)c(OC)c(OC)c3)cc2)cc(OC)c1 (2.5 µM),0,0,0,0,0,0,0,0,0,0,0,0,0,0,0,0,0,0,0,0
CCn1c(-c2nonc2N)nc2c(C#CCO)ncc(OCCCN)c21 [AKT Kinase Inhibitor] (10 µM),0,0,0,0,0,0,0,0,0,0,0,0,0,0,0,0,0,0,0,0

SMILES,number of time points (CSNK1A1),number of time points (CSNK1D),number of time points (DDR1),number of time points (DYRK1B),number of time points (DYRK2),number of time points (EGFR),number of time points (EGFR_G719S),number of time points (EGFR_G719S_T790M),number of time points (EGFR_L718V),number of time points (EGFR_L858R),number of time points (EGFR_L861Q),number of time points (EGFR_T790M),number of time points (EPHA2),number of time points (ERBB3),number of time points [1],number of time points (ERN1),number of time points (FGFR1),number of time points (FGFR2),number of time points (FGFR3),number of time points (FGR)
C1=N/C2=N/c3ccc(OCCN4CCCC4)c(c3)COC/C=C/COCc3cccc(c3)C(=C1)N2 [Pacritinib] (2.5 µM),0,0,0,0,0,0,0,0,0,0,0,0,0,0,0,0,0,0,0,0
CNS(=O)(=O)C[C@H]1CC[C@H](N(C)c2[nH]cnc3nccc2-3)CC1 [Oclacitinib (maleate)] (10 µM),0,0,0,0,0,0,0,0,0,0,0,0,0,0,0,0,0,0,0,0
O=C(N=c1sccn1Cc1ccccc1)c1c[nH]c2ncccc12 (10 µM),0,0,0,0,0,0,0,0,0,0,0,0,0,0,0,0,0,0,0,0
O=C1NC(=O)C(c2ccccc2[N+](=O)[O-])=C1Nc1ccc(O)c(Cl)c1 (10 µM),0,0,0,0,0,0,0,0,0,0,0,0,0,0,0,0,0,0,0,0
Oc1ccc2ccccc2c1SSc1c(O)ccc2ccccc12 (10 µM),0,0,0,0,0,0,0,0,0,0,0,0,0,0,0,0,0,0,0,0
CNCCOc1ccccc1C(C)(C)Nc1nccn(-c2cc(C(=O)NC3CC3)ccc2C)c1=O [p38α inhibitor 2] (10 µM),0,0,0,0,0,0,0,0,0,0,0,0,0,0,0,0,0,0,0,0
CCN1C(C)(C)CC(Oc2ccc(C(=O)Nc3ccc(NC(=O)Nc4cc(C(C)(C)C)on4)cc3)nc2)CC1(C)C (10 µM),0,0,0,0,0,0,0,0,0,0,0,0,0,0,0,0,0,0,0,0
C=CC(=O)Nc1cccc(Nc2nc(Nc3ccc(Oc4ccnc(C(=O)NC)c4)cc3)ncc2F)c1 (2.5 µM),0,0,0,0,0,0,0,0,0,0,0,0,0,0,0,0,0,0,0,0
Cc1c(Br)c(Br)c2c3c1nc(N1CCNCC1)n3CCC2 [SEL120-34A (monohydrochloride)] (2.5 µM),0,0,0,0,0,0,0,0,0,0,0,0,0,0,0,0,0,0,0,0
COc1cc(-c2cnc(N)c(-c3ccc(NC(=O)c4cn(CC5CCOCC5)cc(-c5ccc(C)cn5)c4=O)cc3F)c2)ccc1OC[C@H]1COCCO1 [DS-1205b (free base)] (10 µM),0,0,0,0,0,0,0,0,0,0,0,0,0,0,0,0,0,0,0,0
Cc1cccc(-c2[nH]c(C(C)(C)C)nc2-c2ccc3c(c2)OCO3)n1 (2.5 µM),0,0,0,0,0,0,0,0,0,0,0,0,0,0,0,0,0,0,0,0
O=C(O)/C=C/c1cc(Br)c(Br)c(Br)c1Br (10 µM),0,0,0,0,0,0,0,0,0,0,0,0,0,0,0,0,0,0,0,0
NC(=O)c1cccc2c(N[C@H](CN3CCC3)c3ccc(Cl)c(C(F)(F)F)c3)ncnc12 (10 µM),0,0,0,0,0,0,0,0,0,0,0,0,0,0,0,0,0,0,0,0
C=CC(=O)Nc1cccc(Oc2nc(Nc3ccc(N4CCN(C)CC4)cc3)ncc2Cl)c1 (2.5 µM),0,0,0,0,0,0,0,0,0,0,0,0,0,0,0,0,0,0,0,0
CCn1c2ccccc2c2cc(Nc3ccnc(NCCCN4CCOCC4)n3)ccc21 (2.5 µM),0,0,0,0,0,0,0,0,0,0,0,0,0,0,0,0,0,0,0,0
Cc1cc(=O)[nH]c(=S)[nH]1 [Methylthiouracil] (10 µM),0,0,0,0,0,0,0,0,0,0,0,0,0,0,0,0,0,0,0,0

# Molecules listed so far that contain a tert-butyl group:
SMILES,number of time points (CSNK1A1),number of time points (CSNK1D),number of time points (DDR1),number of time points (DYRK1B),number of time points (DYRK2),number of time points (EGFR),number of time points (EGFR_G719S),number of time points (EGFR_G719S_T790M),number of time points (EGFR_L718V),number of time points (EGFR_L858R),number of time points (EGFR_L861Q),number of time points (EGFR_T790M),number of time points (EPHA2),number of time points (ERBB3),number of time points [1],number of time points (ERN1),number of time points (FGFR1),number of time points (FGFR2),number of time points (FGFR3),number of time points (FGR)
CC(C)(C)S(=O)(=O)c1cc2c(Nc3ccc4scnc4c3)ccnc2cc1OCCOCCOCCOCCOCC(=O)Nc1cccc2c1CN(C1CCC(=O)NC1=O)C2=O (stereo not given) [PROTAC RIPK degrader-6] (10 µM),0,0,0,0,0,0,0,0,0,0,0,0,0,0,0,0,0,0,0,0
CCN1C(C)(C)CC(Oc2ccc(C(=O)Nc3ccc(NC(=O)Nc4cc(C(C)(C)C)on4)cc3)nc2)CC1(C)C (10 µM),0,0,0,0,0,0,0,0,0,0,0,0,0,0,0,0,0,0,0,0
Cc1cccc(-c2[nH]c(C(C)(C)C)nc2-c2ccc3c(c2)OCO3)n1 (2.5 µM),0,0,0,0,0,0,0,0,0,0,0,0,0,0,0,0,0,0,0,0
